PubChem BioAssay AID686938 | Drosophila RNAi Screening Center | 2013

Assay: 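Looking for CRAC channel components and the factors controlling them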 (primary screen)
Cell system: Drosophila S2R+ cells
Reagent: long dsRNA against Drosophila genes, about 0.25 µg dsRNA per well, roughly 10,000 cells
Duration: 5 days of knock-down before the calcium assay
Conditions: thapsigargin (SERCA pump blocker) to empty calcium stores; entry signal taken 4 min after adding it
Detection: 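Per-well fluo-4 fluorescence in two replicates, unnormalised, measured in resting cells and 4 min after store depletion by the SERCA blocker thapsigargin; ratio of the two present in few wells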
Scale: calcium entry signal: higher = stronger calcium signal after store depletion; entry to resting ratio: higher = more calcium entry relative to resting level; resting calcium signal: higher = higher resting calcium signal
Hit rule: 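Called when the plate z-score of the entry-to-rest ratio, mean of duplicates, falls below −3; wells with low overall dye signal (Fmax z below −2) or more than five off-targets excluded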
Meaning of the calls: active = strongly reduced calcium entry; inactive = no strong reduction
The deposit covers about 23,000 reagents; shown is a random part of those that have a named target and a result. Over the whole deposit, 75 (0.33%) are marked active. 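Raw plate signals without normalisation; calls rest on plate z-scores that were not deposited; ratio present for only 364 wells.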 A plus sign joins genes that one reagent is predicted to hit. The record does not give: the dose of the treatment.

| Gene | amplicon | calcium entry signal, replicate 1 (fluorescence units) | calcium entry signal, replicate 2 (fluorescence units) | entry to resting ratio | resting calcium signal, replicate 1 (fluorescence units) | resting calcium signal, replicate 2 (fluorescence units) | outcome |
| --- | --- | --- | --- | --- | --- | --- | --- |
| ix (intersex) | DRSC06325 | 3.43e7 | 3.96e7 | – | 1.83e7 | 1.74e7 | inactive |
| CG12496 | DRSC18602 | 2.34e7 | 3.79e7 | 2 | 1.17e7 | 1.54e7 | inactive |
| CG13096 | DRSC02198 | 2.67e7 | 3.55e7 | – | 1.39e7 | 1.65e7 | inactive |
| ect (ectodermal) | DRSC10675 | 3.32e7 | 4.49e7 | – | 1.80e7 | 2.16e7 | inactive |
| ect (ectodermal) | DRSC11343 | 3.23e7 | 3.99e7 | – | 1.72e7 | 2.02e7 | inactive |
| ect (ectodermal) | DRSC22357 | 3.60e7 | 4.98e7 | – | 1.83e7 | 2.71e7 | inactive |
| asRNA:CR31514 + CG12947 | DRSC14575 | 4.19e7 | 3.58e7 | – | 2.08e7 | 1.75e7 | inactive |
| ida (imaginal discs arrested) | DRSC08163 | 3.60e7 | 2.71e7 | – | 2.37e7 | 1.67e7 | inactive |
| Hk (Hyperkinetic) | DRSC17638 | 2.23e7 | 2.81e7 | – | 1.38e7 | 1.57e7 | inactive |
| Hk (Hyperkinetic) | DRSC17639 | 3.62e7 | 3.69e7 | – | 1.87e7 | 2.04e7 | inactive |
| Hk (Hyperkinetic) | DRSC18138 | 5.06e7 | 5.00e7 | – | 2.35e7 | 2.40e7 | inactive |
| Hk (Hyperkinetic) | DRSC18674 | 4.52e7 | 3.77e7 | – | 2.31e7 | 2.04e7 | inactive |
| pncr003:2L (retired record) | DRSC22149 | 3.22e7 | 6.87e7 | – | 1.46e7 | 2.80e7 | inactive |
| mRpL22 (mitochondrial ribosomal protein L22) | DRSC19915 | 3.97e7 | 3.43e7 | – | 1.72e7 | 1.44e7 | inactive |
| JMJD6 (Jumonji domain containing 6) | DRSC15787 | 4.60e7 | 2.95e7 | – | 2.23e7 | 1.29e7 | inactive |
| Dus1 (Dihydrouridine synthase 1) | DRSC00623 | 5.54e7 | 5.66e7 | – | 2.54e7 | 2.41e7 | inactive |
| chico | DRSC03531 | 3.91e7 | – | – | 1.98e7 | – | inactive |
| NC2alpha (Negative Cofactor 2alpha) | DRSC04059 | 2.64e7 | – | – | 1.50e7 | – | inactive |
| RpS16 (Ribosomal protein S16) | DRSC04442 | 1.68e7 | 1.67e7 | – | 1.09e7 | 1.08e7 | inactive |
| AspRS (Aspartyl-tRNA synthetase) | DRSC05914 | 3.80e7 | 4.07e7 | – | 1.73e7 | 1.85e7 | inactive |
| Cpr49Ae (Cuticular protein 49Ae) | DRSC07201 | 2.28e7 | 4.03e7 | – | 1.19e7 | 1.97e7 | inactive |
| Mgat4a | DRSC09326 | 4.17e7 | 3.85e7 | – | 1.89e7 | 1.80e7 | inactive |
| Mgat4a | DRSC11070 | 4.40e7 | 5.93e7 | – | 2.09e7 | 2.07e7 | inactive |
| CG30010 | DRSC05193 | 2.85e7 | 6.40e7 | – | 1.47e7 | 2.71e7 | inactive |
| nAChRalpha5 (nicotinic Acetylcholine Receptor alpha5) | DRSC01360 | 1.83e7 | 3.10e7 | – | 1.10e7 | 1.44e7 | inactive |
| nAChRalpha5 (nicotinic Acetylcholine Receptor alpha5) | DRSC01946 | 4.92e7 | 3.19e7 | – | 2.08e7 | 1.50e7 | inactive |
| nAChRalpha5 (nicotinic Acetylcholine Receptor alpha5) | DRSC01947 | 5.10e7 | 2.85e7 | – | 2.17e7 | 1.45e7 | inactive |
| nAChRalpha5 (nicotinic Acetylcholine Receptor alpha5) | DRSC22785 | 4.58e7 | 3.01e7 | – | 2.14e7 | 1.32e7 | inactive |
| yellow-g2 | DRSC08338 | 3.02e7 | 4.32e7 | – | 1.62e7 | 1.98e7 | inactive |
| MtnB (Metallothionein B) | DRSC22744 | 4.65e7 | 3.73e7 | – | 2.70e7 | 1.80e7 | inactive |

3 successive records from above:
| Gene | amplicon | calcium entry signal, replicate 1 (fluorescence units) | calcium entry signal, replicate 2 (fluorescence units) | entry to resting ratio | resting calcium signal, replicate 1 (fluorescence units) | resting calcium signal, replicate 2 (fluorescence units) | outcome |
| --- | --- | --- | --- | --- | --- | --- | --- |
| Mgat4a | DRSC09326 | 4.17e7 | 3.85e7 | – | 1.89e7 | 1.80e7 | inactive |
| Mgat4a | DRSC11070 | 4.40e7 | 5.93e7 | – | 2.09e7 | 2.07e7 | inactive |
| CG30010 | DRSC05193 | 2.85e7 | 6.40e7 | – | 1.47e7 | 2.71e7 | inactive |

Continued:
| Gene | amplicon | calcium entry signal, replicate 1 (fluorescence units) | calcium entry signal, replicate 2 (fluorescence units) | entry to resting ratio | resting calcium signal, replicate 1 (fluorescence units) | resting calcium signal, replicate 2 (fluorescence units) | outcome |
| --- | --- | --- | --- | --- | --- | --- | --- |
| mts (microtubule star) | DRSC03574 | 3.03e7 | – | – | 2.21e7 | – | active |
| CG4911 | DRSC10456 | 4.14e7 | 3.46e7 | – | 3.16e7 | 1.54e7 | inactive |
| CG30116 | DRSC05935 | 3.51e7 | 3.68e7 | – | 1.69e7 | 1.83e7 | inactive |
| CG30116 | DRSC06685 | 5.28e7 | 4.89e7 | – | 2.16e7 | 2.22e7 | inactive |
| CG10126 | DRSC14191 | 3.53e7 | 4.78e7 | – | 1.57e7 | 2.10e7 | inactive |
| CG4332 | DRSC19890 | 3.66e7 | 4.19e7 | – | 1.71e7 | 1.88e7 | inactive |
| Dp1 (Dodeca-satellite-binding protein 1) | DRSC07403 | 4.06e7 | 4.77e7 | – | 1.79e7 | 2.04e7 | inactive |
| Vlet (Valette) | DRSC19845 | 3.32e7 | 3.49e7 | – | 1.58e7 | 1.62e7 | inactive |
| ND4 (retired record) | DRSC21269 | 2.50e7 | 3.54e7 | – | 1.40e7 | 1.68e7 | inactive |
| CG16799 | DRSC06626 | 2.92e7 | 3.35e7 | – | 1.56e7 | 1.59e7 | inactive |
| CG16799 | DRSC21553 | 4.33e7 | 3.43e7 | – | 2.46e7 | 1.52e7 | inactive |
| CG3407 | DRSC00603 | 4.50e7 | – | – | 2.40e7 | – | inactive |
| Osi10b (Osiris 10b) | DRSC12279 | 4.61e7 | 3.44e7 | – | 2.18e7 | 1.61e7 | inactive |
| BubR1 (Bub1-related kinase) | DRSC04838 | 3.11e7 | 3.65e7 | – | 1.94e7 | 2.33e7 | active |
| Arp5 (Actin-related protein 5) | DRSC16350 | 5.63e7 | 4.22e7 | – | 2.55e7 | 1.92e7 | inactive |
| ATP8 (retired record) | DRSC21277 | 3.72e7 | 4.32e7 | – | 2.06e7 | 2.00e7 | inactive |
| unc79 (uncoordinated 79) | DRSC15746 | 3.51e7 | 2.98e7 | – | 1.70e7 | 1.39e7 | inactive |
| CARPB (Carbonic anhydrase-related protein B) | DRSC18437 | 4.07e7 | 3.59e7 | – | 1.92e7 | 1.81e7 | inactive |
| CARPB (Carbonic anhydrase-related protein B) | DRSC18438 | 3.37e7 | 4.62e7 | – | 1.60e7 | 2.02e7 | inactive |
| Txl (Thioredoxin-like) | DRSC11310 | 3.55e7 | 4.57e7 | – | 1.76e7 | 2.08e7 | inactive |
| Lcp65APsi (pseudo) | DRSC08795 | 4.58e7 | 3.37e7 | – | 2.33e7 | 1.61e7 | inactive |
| Lcp65APsi (pseudo) | DRSC10342 | 3.06e7 | 4.22e7 | – | 1.44e7 | 1.99e7 | inactive |
| Fas1 (Fasciclin 1) | DRSC16669 | 2.51e7 | 4.64e7 | – | 1.23e7 | 5.86e7 | inactive |
| CG30480 | DRSC06736 | 2.59e7 | 3.93e7 | – | 1.39e7 | 1.66e7 | inactive |
| CG32192 | DRSC21760 | 4.37e7 | 2.99e7 | – | 2.47e7 | 1.46e7 | inactive |
| CG13127 | DRSC02223 | 2.77e7 | 4.51e7 | – | 1.31e7 | 2.22e7 | inactive |
| CG17019 | DRSC06642 | 2.43e7 | 4.76e7 | – | 2.06e7 | 2.10e7 | inactive |
| CSN3 (COP9 signalosome subunit 3) | DRSC11859 | 2.91e7 | 3.26e7 | – | 1.65e7 | 1.81e7 | inactive |
